Results taken from publication PMC8791842.
These are yes or no findings as the source states them, for the method shown. Binding seen in cells or lysates may run through a third protein.

The chains behind the UniProt entries cited, without tags or fusion partners. Residues count along the entry.
UniProt P01024, residues 955-1303: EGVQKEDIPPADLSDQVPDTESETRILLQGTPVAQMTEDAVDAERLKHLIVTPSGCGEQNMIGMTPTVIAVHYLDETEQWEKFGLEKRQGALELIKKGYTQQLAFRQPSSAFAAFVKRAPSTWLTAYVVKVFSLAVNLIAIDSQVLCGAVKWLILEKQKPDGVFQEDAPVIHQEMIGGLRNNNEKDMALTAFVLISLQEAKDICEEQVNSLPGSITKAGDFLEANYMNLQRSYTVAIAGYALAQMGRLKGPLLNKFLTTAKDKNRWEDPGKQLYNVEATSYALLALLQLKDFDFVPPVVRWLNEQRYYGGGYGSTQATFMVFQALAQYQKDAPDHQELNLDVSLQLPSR
UniProt P02748, residues 22-559: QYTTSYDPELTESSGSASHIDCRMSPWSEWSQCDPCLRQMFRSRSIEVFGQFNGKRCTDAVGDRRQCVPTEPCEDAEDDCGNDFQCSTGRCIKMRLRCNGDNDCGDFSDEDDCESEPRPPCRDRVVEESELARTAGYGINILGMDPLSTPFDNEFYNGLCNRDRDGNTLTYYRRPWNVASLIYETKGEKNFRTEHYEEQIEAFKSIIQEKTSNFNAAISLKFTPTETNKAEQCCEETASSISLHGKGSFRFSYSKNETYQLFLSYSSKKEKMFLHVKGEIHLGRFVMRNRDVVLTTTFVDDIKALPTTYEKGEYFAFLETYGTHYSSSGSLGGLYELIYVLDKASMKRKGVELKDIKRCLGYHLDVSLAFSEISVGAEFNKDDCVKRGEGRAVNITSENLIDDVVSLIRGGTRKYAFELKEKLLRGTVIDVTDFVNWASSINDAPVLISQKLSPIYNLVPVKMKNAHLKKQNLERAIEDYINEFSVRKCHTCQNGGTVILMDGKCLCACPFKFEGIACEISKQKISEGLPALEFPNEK
UniProt P08962: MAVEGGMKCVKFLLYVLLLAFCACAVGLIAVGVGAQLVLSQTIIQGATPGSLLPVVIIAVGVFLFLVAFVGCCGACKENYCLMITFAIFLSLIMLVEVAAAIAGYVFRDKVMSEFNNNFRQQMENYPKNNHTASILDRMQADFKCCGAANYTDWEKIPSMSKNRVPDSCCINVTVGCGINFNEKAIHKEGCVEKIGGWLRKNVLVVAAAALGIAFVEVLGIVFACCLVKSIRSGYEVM
UniProt Q99816: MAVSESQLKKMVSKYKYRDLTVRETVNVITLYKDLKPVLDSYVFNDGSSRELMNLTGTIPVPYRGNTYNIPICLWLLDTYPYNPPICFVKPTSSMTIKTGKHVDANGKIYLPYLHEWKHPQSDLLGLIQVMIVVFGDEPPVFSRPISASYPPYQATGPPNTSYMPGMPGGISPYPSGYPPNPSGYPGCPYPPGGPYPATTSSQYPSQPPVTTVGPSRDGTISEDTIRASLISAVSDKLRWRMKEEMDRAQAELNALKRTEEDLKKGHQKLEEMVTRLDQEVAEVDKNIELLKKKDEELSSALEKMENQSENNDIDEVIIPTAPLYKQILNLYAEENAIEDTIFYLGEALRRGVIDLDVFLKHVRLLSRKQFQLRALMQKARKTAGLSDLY

How the values were obtained:
[1] = molecular target: C3dg (human (endogenous in urine extracellular vesicles)) (UniProt P01024); assay: co-IP; immunoaffinity isolation from 100 uL of pooled PEG-precipitated urine extracellular vesicles (6 C9 neoantigen-positive KTRs) in PBS; biotinylated anti-C3dg 15-39-06 (5 ug/mL) or pooled biotinylated anti-native C9 8-12-67 and 8-12-71 (4 ug/mL each), 4°C, 60 min; streptavidin magnetic beads; three PBS washes; eluted in 0.5% citric acid; immunoblot of eluates
[2] = molecular target: complement C9 (human (endogenous in urine extracellular vesicles)) (UniProt P02748); assay: as above

Row | binding [1] | binding [2] | Substance
1 | no binding | – | CD63 (from UniProt P08962 1-238)
2 | no binding | no binding | tumor susceptibility gene 101 protein (from UniProt Q99816 1-390)
